Results published in PubChem BioAssay AID590 (National Center for Advancing Translational Sciences (NCATS), 2007).
Out of some 59,000 compounds screened, about 6,500 (11%) were called active. Inconclusive means that the source gave no clear call. Such entries were picked first, then a sample of the others. No stated cut-off is given here; in the data, active means max dye-equivalent concentration above about 10 nM; inconclusive means mostly about 1.1 nM to 9.6 nM; inactive means weaker than that. Peptide text beside a SMILES is read from it. * marks the point of attachment. Boc = CC(C)(C)OC(=O)*

Assay: qHTS Assay for Spectroscopic Profiling in A350 Spectral Region
Details: Compound autofluorescence, 340/450 nm, Alexa 350 dye-equivalents; hits give high values

| Compound | max dye-equivalent concentration |
| --- | --- |
| CCC1(C)Cc2c(C#N)c(N)n(-c3ccccc3)c(=O)c2CO1 (configuration not stated) | inconclusive: 1.3 nM |
| CCOC(=O)c1c(=O)n(O)c2ccc(C)cc2[n+]1[O-] | inactive |
| CCCc1nc2oc3c(NCCOCCO)ncnc3c2c2c1COC(C)(C)C2 | inactive |
| CCOC(=O)CC(=O)CSc1nc(-c2cccnc2)cc(C)c1C#N | inconclusive: 6.5 nM |
| Cc1oc(-c2ccc(Cl)cc2)nc1CSCC(=O)NCCCN1CCOCC1 | inactive |
| CC(C)c1[nH]c(=O)c(C#N)c2c1CSC(C)(C)C2 | active: 340 nM |
| OCCN(CCO)CC(O)Cn1c2ccccc2c2ccccc21 (configuration not stated) | inactive |
| CC(O)c1nc2ccccc2n1Cc1nnc(-c2ccc(Cl)cc2)o1 (configuration not stated) | inconclusive: 1.5 nM |
| CCOC(=O)c1cnc2sccn2c1=O | inconclusive: 3.4 nM |
| Cc1ccc2cc(C(c3nnnn3C3CCCC3)N3CCN(c4ccccc4)CC3)c(=O)[nH]c2c1 (configuration not stated) | inactive |
| O=C(c1nc2nc(-c3ccccc3)cc(C(F)(F)F)n2n1)N1CCOCC1 | inconclusive: 8.2 nM |
| Cc1cnc(CNc2ncnc3ccc(-c4ccoc4)cc23)cn1 | active: 53 nM |
| O=C1CC(Sc2nnc(-c3ccccc3)o2)C(=O)N1c1ccccc1 (configuration not stated) | inactive |
| Cc1ccc2oc(=O)cc(CN3CCC(C)CC3)c2c1 | active: 150 nM |
| N#CCCn1c(=O)c(-c2ccc(Cl)cc2)nc2cnc(N3CCNCC3)nc21 | active: 260 nM |
| CCOC(=O)C1CCN(C(=O)CCCCn2c(=O)[nH]c3ccccc3c2=O)CC1 | inconclusive: 2 nM |
| CCOc1ccc(N=C2SC(C(=O)O)CC(=O)N2C)cc1 (configuration not stated) | inactive |
| COC(=O)CNS(=O)(=O)c1ccc(Cc2ccc(S(=O)(=O)NCC(=O)OC)cc2)cc1 | inconclusive: 1.6 nM |
| CC(C)CC(NC(=O)C1CCCN1C(=O)OC(C)(C)C)C(=O)NCC(N)=O (stereo not drawn) (Boc-Pro-Leu-Gly-NH2; configuration not given here) | inconclusive: 1.5 nM |

| Compound | max dye-equivalent concentration |
| --- | --- |
| Cc1cc(C)n(-c2ccc(C(=O)Nc3nnc(C4CC4)s3)cc2)n1 | inactive |
| COCCN1C(=O)c2ccccc2C(C(=O)NCC2CCCO2)C1c1c[nH]c2ccccc12 (configuration not stated) | inactive |
| CCOc1ccc(/C(O)=C2/C(=O)C(=O)N(c3nc(C)c(C)s3)C2c2ccco2)cc1 (configuration not stated) | inconclusive: 1.5 nM |
| CN(C)CCN1C(=O)C(=O)/C(=C(/O)c2ccc(OCc3ccccc3)cc2)C1c1ccncc1 (configuration not stated) | inconclusive: 2.5 nM |
| CCOC(=O)Cc1cnc(NC(=O)NC(C(=O)OCC)(c2ccccc2)C(F)(F)F)s1 (configuration not stated) | inactive |
| c1ccc2c(-c3nc(-c4ccncc4)no3)cccc2c1 | inconclusive: 2.6 nM |
| CC(C(=O)NC1CCCC1)N(Cc1ccc2c(c1)OCO2)C(=O)c1snc(C(N)=O)c1N (configuration not stated) | active: 28 nM |
| COc1ccc(-n2c(SCCC#N)nnc2-c2cc(Cl)ccc2OC)cc1Cl | inactive |
| COc1ccccc1N1CCN(C(=O)C2CC=CCC2C(=O)O)CC1 (configuration not stated) | inactive |
| COc1cccc(C(=O)NCC(=O)N2CCC(C)CC2)c1 | active: 11 nM |
| COCCNC(=O)c1c(N)n(-c2cccc(C)c2)c2nc3ccccc3nc12 | active: 4500 nM |
| Cc1cc(C)c2c(n1)nn1c(N3CCOCC3)cc(C)nc21 | active: 7500 nM |
| Cn1c(=O)c(-c2cc(F)cc(F)c2)nc2cnc(Oc3ccccc3)nc21 | inconclusive: 1.3 nM |
| COCCN1C(=O)C(=O)/C(=C(/O)c2ccc(OCC(C)C)cc2)C1c1cccnc1 (configuration not stated) | inconclusive: 2.6 nM |
| COC(=O)c1cc(OC)c(OC)cc1NC(=O)c1cc(C)on1 | active: 28 nM |
| O=C(CCC1CCCCC1)Nc1ccccc1O | inconclusive: 2.2 nM |
| O=S(=O)(NC1CCCC1)c1ccc(S(=O)(=O)N2CCc3ccccc32)cc1 | inactive |
| Cc1ccc(S(=O)(=O)c2nc(NC3CCS(=O)(=O)C3)sc2Cl)cc1 (configuration not stated) | inactive |
| CCc1ccc(NC(=O)CSC2=C(C#N)C(c3ccc4c(c3)OCO4)CC(=O)N2)cc1 (configuration not stated) | inactive |

Sorted by heavy-atom count (descending): 13 of the compounds above.

| Compound | max dye-equivalent concentration |
| --- | --- |
| CN(C)CCN1C(=O)C(=O)/C(=C(/O)c2ccc(OCc3ccccc3)cc2)C1c1ccncc1 (configuration not stated) | inconclusive: 2.5 nM |
| COCCN1C(=O)c2ccccc2C(C(=O)NCC2CCCO2)C1c1c[nH]c2ccccc12 (configuration not stated) | inactive |
| COC(=O)CNS(=O)(=O)c1ccc(Cc2ccc(S(=O)(=O)NCC(=O)OC)cc2)cc1 | inconclusive: 1.6 nM |
| CCOc1ccc(/C(O)=C2/C(=O)C(=O)N(c3nc(C)c(C)s3)C2c2ccco2)cc1 (configuration not stated) | inconclusive: 1.5 nM |
| CCCc1nc2oc3c(NCCOCCO)ncnc3c2c2c1COC(C)(C)C2 | inactive |
| Cn1c(=O)c(-c2cc(F)cc(F)c2)nc2cnc(Oc3ccccc3)nc21 | inconclusive: 1.3 nM |
| CC(O)c1nc2ccccc2n1Cc1nnc(-c2ccc(Cl)cc2)o1 (configuration not stated) | inconclusive: 1.5 nM |
| Cc1cnc(CNc2ncnc3ccc(-c4ccoc4)cc23)cn1 | active: 53 nM |
| COC(=O)c1cc(OC)c(OC)cc1NC(=O)c1cc(C)on1 | active: 28 nM |
| Cc1cc(C)c2c(n1)nn1c(N3CCOCC3)cc(C)nc21 | active: 7500 nM |
| c1ccc2c(-c3nc(-c4ccncc4)no3)cccc2c1 | inconclusive: 2.6 nM |
| Cc1ccc2oc(=O)cc(CN3CCC(C)CC3)c2c1 | active: 150 nM |
| CC(C)c1[nH]c(=O)c(C#N)c2c1CSC(C)(C)C2 | active: 340 nM |

Continued:

| Compound | max dye-equivalent concentration |
| --- | --- |
| CC(C)[N+]1(C)[C@@H]2CC[C@H]1CC(OC(=O)C(CO)c1ccccc1)C2 (some centres not stated) | inconclusive: 3.8 nM |
| CN1C(=O)NC(c2ccccc2)C2=C1CN(c1cccc(C(F)(F)F)c1)C2=O (configuration not stated) | inconclusive: 5.7 nM |
| CCCc1ccc(OCC(O)CN2CCN(c3ccccc3)CC2)cc1 (configuration not stated) | inconclusive: 1.3 nM |
| O=C1c2oc3ccc(Cl)cc3c(=O)c2C(c2cccnc2)N1Cc1ccco1 (configuration not stated) | active: 11 nM |
| COc1ccccc1OCC(=O)Nc1cccc(C(=O)N2CCOCC2)c1 | inconclusive: 1.4 nM |
| CN(C)C(=O)c1ccc(-c2cc(NCc3cccnc3)ncn2)cc1 | inactive |
| N[C@H](CCCC(=O)O)C(=O)O | inconclusive: 1.2 nM |
| Cc1cc(-c2ccco2)n2c(nc3ccccc32)c1C#N | inconclusive: 6 nM |
| O=C(Nc1ccc2nn(-c3ccccc3)nc2c1)c1cccnc1 | inconclusive: 1.9 nM |
| O=C(Nc1ccc(NC(=O)C2CC2)nc1)c1ccncc1 | inactive |
| CCOCCCNC(=O)C1CCCN(S(=O)(=O)CC)C1 (configuration not stated) | inactive |
| Nc1ccc(Cl)cc1/C(=N/O)c1ccccc1 | inconclusive: 1.6 nM |
| COC(=O)[C@@H](NC(=O)NCc1ccco1)C(C)C | inconclusive: 2.3 nM |
| CC(C)CCn1c(Br)nc2c1c(=O)n(CC(N)=O)c(=O)n2C | inactive |
| CC(=O)c1ccc(N2CCN(C(=O)C3CCCN(S(=O)(=O)c4cnc[nH]4)C3)CC2)cc1 (configuration not stated) | active: 11 nM |
| CC1=C(C(=O)Nc2ccccc2)C(c2ccncc2)C(C#N)=C(SCC(=O)NC(C)C)N1 (configuration not stated) | inconclusive: 4.1 nM |
| CC1CCN(S(=O)(=O)c2ccc3c(c2)CCN3C(=O)CCC(=O)O)CC1 | inactive |
| N#Cc1cccc(-c2nc3cnc(N4CCOCC4)nc3n(Cc3ccc(F)cc3)c2=O)c1 | inconclusive: 3.1 nM |
| COc1ccc(CNc2nc(-c3ccc(C(=O)N(C)C)cc3)nc3ccccc23)c(OC)c1 | inactive |
